Laboratory results published in patent publication US6570002 (Johns Hopkins, dated 2003).
No constants are given. Whether binding was seen depends on the method and setting. Binding seen in cells or lysates may run through a third protein. A result given as binding can be weak or reduced; the word gives no strength.

Key:
[1] = molecular target: KSBcl-2 (Kaposi sarcoma-associated herpes virus Bcl-2 homologue) (Kaposi sarcoma-associated herpes virus); assay: co-immunoprecipitation from COS-1 cell lysates (FIG. 7B)
[2] = molecular target: KSBcl-2 (Kaposi sarcoma-associated herpes virus Bcl-2 homologue) (Kaposi sarcoma-associated herpes virus); assay: yeast two-hybrid / co-immunoprecipitation from COS-1 cell lysates (FIGS. 6, 7B)
[3] = molecular target: KSBcl-2 (Kaposi sarcoma-associated herpes virus Bcl-2 homologue) (Kaposi sarcoma-associated herpes virus); assay: yeast two-hybrid and co-immunoprecipitation on COS-1 cell lysates (FIGS. 6, 7, 8)

Measured: binding

B1: Aven (protein)
chain: MQAERGARGGRGRRPGRGRPGGDRHSERPGAAAAVARGGGGGGGGDGGGRRGRGRGRGFRGARGGRGGGGAPRGSRREPGGWGAGASAPVEDDSDAETYGEENDEQGNYSKRKIVSNWDRYQDIEKEVNNESGESQRGTDFSVLLSSAGDSFSQFRFAEEKEWDSEASCPKQNSAFYVDSELLVRALQELPLCLRLNVAAELVQGTVPLEVPQVKPKRTDDGKGLGMQLKGPLGPGGRGPIFELKSVAAGCPVLLGKDNPSPGPSRDSQKPTSPLQSAGDHLEEELDLLLNLDAPIKEGDNILPDQTSQDLKSKEDGEVVQEEEVCAKPSVTEEKNMEPEQPSTSKNVTEEELEDWLDSMIS
binds: all assays above
